# Measurements: the supplement of paper PMC9135407
# Several values for one entry are separate records, joined by “and”; a condition that tells them apart may be missing. Identical values can stand only once. Counter-ions that a name gives are not always drawn. ± gives the standard deviation of the averaged measurements. This is one part of the list. Plates or batches differ in their baseline, so values are only roughly comparable.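 Primary human stellate myofibroblasts activated in culture; inactivation shown by regained lipid droplets. Readout: fraction of Hoechst-counted cells exceeding a per-plate Bodipy threshold, duplicate wells, each plate with DMSO negative and nortriptyline positive controls. Hits: control-normalized score beyond the plate's top-tenth-percentile nortriptyline wells, or among its three best wells. Final well concentrations unstated.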
# System: primary human hepatic stellate cells (donor 1)
# Assay: percent Bodipy-positive cells; higher = more lipid droplet accumulation
# Conditions: 48 h
# [1] = library stock concentration: 1 mM
# [2] = library stock concentration: 3.33 mM
# [3] = library stock concentration: 10 mM
# [4] = library stock concentration: 5.3 mM
# [5] = library stock concentration: 80 uM
# [6] = library stock concentration: 400 uM
# [7] = library stock concentration: 2 mM
smiles,measurement,setting,value
"O=P(O)(O)O[C@H]1[C@H](O)[C@@H](O)[C@H](OP(=O)(O)O)[C@@H](OP(=O)(O)O)[C@H]1O [D-myo-Inositol-1,3,4-triphosphate (sodium salt)]",percent Bodipy-positive cells,[1],7.74 ± 3.6%
COc1cc([C@@H]2c3cc4c(cc3[C@@H](O[C@@H]3O[C@@H]5CO[C@@H](C)O[C@H]5[C@H](O)[C@H]3O)[C@H]3COC(=O)[C@H]23)OCO4)cc(OC)c1O [Etoposide],percent Bodipy-positive cells,,31.86 ± 0.17%
same,percent Bodipy-positive cells,[2],15.9 ± 1.4%
NC(=O)C(c1ccccc1)(c1ccccc1)[C@@H]1CCN(CCc2ccc3c(c2)CCO3)C1,percent Bodipy-positive cells,[3],59.4 ± 1.1%
NC(=O)C(c1ccccc1)(c1ccccc1)[C@@H]1CCN(CCc2ccc3c(c2)CCO3)C1 [Darifenacin HBr],percent Bodipy-positive cells,[2],36.8 ± 11%
CCCNCC(O)COc1ccccc1C(=O)CCc1ccccc1 (stereo unspecified) [Propafenone HCl],percent Bodipy-positive cells,[2],44.8 ± 17%
same,percent Bodipy-positive cells,[3],66.5 ± 11%
CCCNCC(O)COc1ccccc1C(=O)CCc1ccccc1 (stereo unspecified) [Propafenone hydrochloride],percent Bodipy-positive cells,,72.2 ± 8.2%
same,percent Bodipy-positive cells,[4],52.1 ± 6.6%
same,percent Bodipy-positive cells,[3],73.8 ± 13%
CCCNCC(O)COc1ccccc1C(=O)CCc1ccccc1 (stereo unspecified) [Propafenone],percent Bodipy-positive cells,library stock concentration: 5.9 mM,42.1 ± 1.2%
CCCNCC(O)COc1ccccc1C(=O)CCc1ccccc1 (stereo unspecified) [Rythmol],percent Bodipy-positive cells,[3],85.1 ± 3.6%
CCCCCCCCCCCCCCCCCC(=O)OC(CC(=O)O)C[N+](C)(C)C (racemic) [DL-Stearoylcarnitine chloride],percent Bodipy-positive cells,[3],48 ± 13%
O=C1c2ccc(Nc3ccc(F)cc3F)cc2CCc2ccc(OC[C@H](O)CO)cc21 [Skepinone-L],percent Bodipy-positive cells,[2],43 ± 9.4%
same,percent Bodipy-positive cells,[3],66.2 ± 12%
C[C@H]1C[C@@H]2[C@H]([C@@H](O)C[C@@]3(C)[C@H]2CC[C@]3(O)C(=O)CO)[C@@]2(C)C=CC(=O)C=C12,percent Bodipy-positive cells,[3],33.2 ± 12%
C[C@H]1C[C@@H]2[C@H]([C@@H](O)C[C@@]3(C)[C@H]2CC[C@]3(O)C(=O)CO)[C@@]2(C)C=CC(=O)C=C12 [Methylprednisolone],percent Bodipy-positive cells,[2],6.55 ± 1.2%
same,percent Bodipy-positive cells,[4],4.82% and 2.96%
same,percent Bodipy-positive cells,[3],17.9% and 4.74%
"C[C@H]1C[C@@H]2[C@H]([C@@H](O)C[C@@]3(C)[C@H]2CC[C@]3(O)C(=O)CO)[C@@]2(C)C=CC(=O)C=C12 [Methylprednisolone, 6-alpha]",percent Bodipy-positive cells,,26.09 ± 0.12%
O=C1CC2(CCCC2)CC(=O)N1CCCCN1CCN(c2ncccn2)CC1 [Buspirone HCl],percent Bodipy-positive cells,[2],24 ± 1.9%
same,percent Bodipy-positive cells,library stock concentration: 5.2 mM,16.3 ± 0.91%
same,percent Bodipy-positive cells,[3],14.2 ± 1.1%
O=C1CC2(CCCC2)CC(=O)N1CCCCN1CCN(c2ncccn2)CC1 [Buspar],percent Bodipy-positive cells,[3],47.5 ± 2.6%
O=C1CC2(CCCC2)CC(=O)N1CCCCN1CCN(c2ncccn2)CC1 [Buspirone hydrochloride],percent Bodipy-positive cells,library stock concentration: 4.7 mM,9.93 ± 1%
CC[C@H]1OC(=O)[C@H](C)[C@@H](O[C@H]2C[C@@](C)(OC)[C@@H](O)[C@H](C)O2)[C@H](C)[C@@H](O[C@@H]2O[C@H](C)C[C@H](N(C)C)[C@H]2O)[C@](C)(O)C[C@@H](C)[C@@H]2N[C@@H](COCCOC)O[C@H]([C@H]2C)[C@]1(C)O [Dirithromycin],percent Bodipy-positive cells,,23.99 ± 0.044%
same,percent Bodipy-positive cells,[2],21.3 ± 0.95%
same,percent Bodipy-positive cells,[3],45.4% and 52.8%
Cc1cc(C)c(/C=C2\C(=O)Nc3ccccc32)[nH]1 [VEGF Receptor 2 Kinase Inhibitor III],percent Bodipy-positive cells,[2],13.1 ± 1.8%
Cc1cc(C)c(/C=C2\C(=O)Nc3ccccc32)[nH]1 [Semaxanib (SU5416)],percent Bodipy-positive cells,[2],6.75 ± 4.5%
same,percent Bodipy-positive cells,[3],28.9 ± 2.2%
Cc1cc(C)c(/C=C2\C(=O)Nc3ccccc32)[nH]1,percent Bodipy-positive cells,[1],8.29 ± 0.88%
same,percent Bodipy-positive cells,[3],16.7% and 4.21%
O=C(NOC[C@H](O)CO)c1ccc(F)c(F)c1Nc1ccc(I)cc1F,percent Bodipy-positive cells,[5],11.5 ± 2.9%
same,percent Bodipy-positive cells,[6],10.5% and 17.7%
same,percent Bodipy-positive cells,[7],10.7% and 33%
same,percent Bodipy-positive cells,[2],7.29 ± 0.67%
CC(C)c1cc(-c2ccc(F)c3ccccc23)nc(N)n1,percent Bodipy-positive cells,[2],15.8 ± 6.3%
same,percent Bodipy-positive cells,[3],18 ± 3.3%
C[C@H](C(=O)O)c1ccc(-c2ccccc2)c(F)c1 [(S)-Flurbiprofen],percent Bodipy-positive cells,[1],16.5 ± 5.8%
O=C1C[C@@H]2[C@@H](/C=C/[C@@H](O)COc3cccc(C(F)(F)F)c3)[C@H](O)C[C@@H]2O1 [Fluprostenol Lactone Diol],percent Bodipy-positive cells,[1],7.07 ± 1.4%
COc1ccc(S(=O)(=O)N(C(C)=O)c2ccccc2/C=C/c2cc[n+]([O-])cc2)cc1,percent Bodipy-positive cells,[5],20.3 ± 20%
same,percent Bodipy-positive cells,[6],10.2 ± 2.8%
same,percent Bodipy-positive cells,[7],13.9 ± 6.1%
same,percent Bodipy-positive cells,[2],20.1 ± 1.9%
same,percent Bodipy-positive cells,[3],53.7% and 37.4%
Cc1c(F)cc(C(=O)NC2CC2)cc1-c1ccc(C(=O)NCC(C)(C)C)cn1,percent Bodipy-positive cells,[2],37.2 ± 8.9%
same,percent Bodipy-positive cells,[3],43.8 ± 2.1%
Cc1c(F)cc(C(=O)NC2CC2)cc1-c1ccc(C(=O)NCC(C)(C)C)cn1 [Losmapimod],percent Bodipy-positive cells,[5],13.7 ± 3.3%
same,percent Bodipy-positive cells,[6],9.12 ± 0.61%
same,percent Bodipy-positive cells,[7],6.35 ± 2.2%
same,percent Bodipy-positive cells,[3],7.83 ± 3.8%
O=C(NCc1ccc(Cl)c(Cl)c1)O[C@H]1CCc2ccccc21,percent Bodipy-positive cells,[1],16.1 ± 3%
CC(=O)c1ccc(N2CCOCC2)cc1O [DNA-PK Inhibitor III],percent Bodipy-positive cells,[2],9.31 ± 1%
CCCCCCCCCCCCCCCC(=O)OC[C@@H](O)COP(=O)(O)O [1-Palmitoyl Lysophosphatidic Acid (sodium salt)],percent Bodipy-positive cells,[1],10.1 ± 1.1%
"CCCC/C=C/C=C/C=C\CCCCCCCC(=O)O [9(Z),11(E),13(E)-Octadecatrienoic Acid]",percent Bodipy-positive cells,[1],7.55 ± 4.6%
Nc1nc(NCCc2ccc(O)cc2)nc2nc(-c3ccco3)nn12,percent Bodipy-positive cells,[3],8.26 ± 2.2%
CCCCC[C@H](O)/C=C/[C@H]1CC[C@H](O)[C@@H]1C/C=C\CCCC(=O)O [11-deoxy Prostaglandin F2.alpha.],percent Bodipy-positive cells,[1],18.1 ± 2.9%
C[C@@H]1C[C@H]2[C@@H]3C[C@H](F)C4=CC(=O)C(Cl)=C[C@]4(C)[C@@]3(F)[C@@H](O)C[C@]2(C)[C@@]1(O)C(=O)CO,percent Bodipy-positive cells,[3],6.15 ± 3.1%
C=CCN1CCc2c(cc(O)c(O)c2Br)[C@@H](c2ccccc2)C1 [R(+)-6-Bromo-APB hydrobromide],percent Bodipy-positive cells,[3],60.5 ± 3%
CC(C)(C)c1ccc(-c2nc3ccccc3[nH]2)cc1,percent Bodipy-positive cells,[2],34.8 ± 9.9%
same,percent Bodipy-positive cells,[3],45.5 ± 10%
Cc1nc(-c2cn3c(n2)-c2ccc(-c4cnn(C(C)(C)C(N)=O)c4)cc2OCC3)n(C(C)C)n1 [Taselisib],percent Bodipy-positive cells,[5],12.9 ± 1.4%
same,percent Bodipy-positive cells,[6],8.6 ± 0.31%
same,percent Bodipy-positive cells,[7],11.5 ± 0.14%
same,percent Bodipy-positive cells,[3],10.3 ± 0.86%
Cc1nc(N)ncc1-c1nc(N2CCOCC2)c2sc(C(C)(C)O)cc2n1,percent Bodipy-positive cells,[6],9.58 ± 1.2%
same,percent Bodipy-positive cells,[7],18.5 ± 0.69%
same,percent Bodipy-positive cells,[3],10.2 ± 2.1%
O=C(/C=C/c1ccc(CN(CCO)CCc2c[nH]c3ccccc23)cc1)NO [LAQ824 (Dacinostat)],percent Bodipy-positive cells,[2],72.4 ± 6.8%
same,percent Bodipy-positive cells,[3],81.9 ± 0.18%
O=c1cc[nH]c(=S)[nH]1 [2-thiouracil],percent Bodipy-positive cells,[3],38 ± 7.3%
O=c1cc[nH]c(=S)[nH]1 [2-Thiouracil],percent Bodipy-positive cells,[2],7.63 ± 0.089%
same,percent Bodipy-positive cells,[3],17.7 ± 2.9%
CCCCC/C=C\C\C=C/C=C/C=C/[C@@H](SC[C@H](N)C(=O)O)[C@@H](O)CCCC(=O)O [Leukotriene E4],percent Bodipy-positive cells,library stock concentration: 100 uM,5.98 ± 3.9%
CC(C)CC(=O)N[C@H](C(=O)N[C@H](C(=O)N[C@@H](CC(C)C)[C@@H](O)CC(=O)N[C@@H](C)C(=O)N[C@@H](CC(C)C)[C@@H](O)CC(=O)O)C(C)C)C(C)C [Pepstatin],percent Bodipy-positive cells,library stock concentration: 7.3 mM,18.7 ± 3.1%
CC(C)CC(=O)N[C@H](C(=O)N[C@H](C(=O)N[C@@H](CC(C)C)[C@@H](O)CC(=O)N[C@@H](C)C(=O)N[C@@H](CC(C)C)[C@@H](O)CC(=O)O)C(C)C)C(C)C [Pepstatin a],percent Bodipy-positive cells,library stock concentration: 2.9 mM,1.74 ± 1.2%
CC(C)CC(=O)N[C@H](C(=O)N[C@H](C(=O)N[C@@H](CC(C)C)[C@@H](O)CC(=O)N[C@@H](C)C(=O)N[C@@H](CC(C)C)[C@@H](O)CC(=O)O)C(C)C)C(C)C [Pepstatin A],percent Bodipy-positive cells,,20.6 ± 2.3%
O=S(=O)(NCCNC/C=C/c1ccc(Br)cc1)c1cccc2cnccc12,percent Bodipy-positive cells,[3],92.3 ± 3.8%
CC(=O)OC1CC2CCC1(C)C2(C)C (stereo unspecified),percent Bodipy-positive cells,[3],23.1 ± 5%
Cc1cccc(C#Cc2ccccc2)n1,percent Bodipy-positive cells,[2],13.1 ± 8%
same,percent Bodipy-positive cells,[3],11.1 ± 4.4%
Cc1cccc(C#Cc2ccccc2)n1 [MPEP hydrochloride],percent Bodipy-positive cells,[3],11.49 ± 0.086%
Cc1cccc(C#Cc2ccccc2)n1 [6-Methyl-2-(phenylethynyl)pyridine hydrochloride],percent Bodipy-positive cells,[3],34.55 ± 0.075%
N[C@H](C(=O)O)c1cc(O)cc(O)c1,percent Bodipy-positive cells,[3],6.54 ± 2%
"N[C@H](C(=O)O)c1cc(O)cc(O)c1 [(S)-3,5-Dihydroxyphenylglycine]",percent Bodipy-positive cells,[3],34 ± 19%
COC(=O)C1=C(C)NC(C)=C(C(=O)OCCSc2ccccc2)C1C (stereo unspecified),percent Bodipy-positive cells,[3],13.51 ± 0.069%
same,percent Bodipy-positive cells,library stock concentration: 13.8 mM,32.7 ± 3.6%
C=C[C@@]1(C)C[C@@H](OC(=O)CS[C@@H]2C[C@H]3CC[C@@H](C2)N3C)[C@@]2(C)[C@@H]3C(=O)CC[C@@]3(CC[C@@H]2C)[C@@H](C)[C@@H]1O [Retapamulin],percent Bodipy-positive cells,[3],93.8 ± 2.2%
CN(C1CCc2c(c3ccccc3n2CC(=O)O)C1)S(=O)(=O)c1ccc(F)cc1 (stereo unspecified),percent Bodipy-positive cells,[1],14.5 ± 0.19%
C[C@H](O)C(=O)Nc1c(I)c(C(=O)NC(CO)CO)c(I)c(C(=O)NC(CO)CO)c1I [Iopamidol],percent Bodipy-positive cells,,6.89 ± 1.7%
CC1Cc2ccccc2N1NC(=O)c1ccc(Cl)c(S(N)(=O)=O)c1 (stereo unspecified) [Indapamide],percent Bodipy-positive cells,,36.2 ± 15%
same,percent Bodipy-positive cells,[2],27 ± 21%
same,percent Bodipy-positive cells,[3],16.7% and 13.7%
CC1Cc2ccccc2N1NC(=O)c1ccc(Cl)c(S(N)(=O)=O)c1 (stereo unspecified),percent Bodipy-positive cells,[3],22.8 ± 5.8%
CC(C)(C)[C@]1(O)CCN2C[C@H]3c4ccccc4CCc4cccc(c43)[C@@H]2C1 [(+)-Butaclamol hydrochloride],percent Bodipy-positive cells,[3],93.3 ± 5.9%
CC(C)(C)[C@]1(O)CCN2C[C@H]3c4ccccc4CCc4cccc(c43)[C@@H]2C1,percent Bodipy-positive cells,[3],80.5 ± 4.4%
C[C@H]1O[C@@H](O[C@H]2[C@@H](O)C[C@H](O[C@H]3[C@@H](O)C[C@H](O[C@H]4CC[C@]5(C)C6C[C@@H](O)[C@]7(C)[C@@H](C8=CC(=O)OC8)CC[C@]7(O)C6CC[C@@H]5C4)O[C@@H]3C)O[C@@H]2C)C[C@H](O)[C@@H]1O (stereo partly specified) [Digoxin],percent Bodipy-positive cells,library stock concentration: 2.6 mM,71.1 ± 14%
Nc1nc2[nH]c(=O)cnc2c(=O)[nH]1 [Isoxanthopterin],percent Bodipy-positive cells,[3],40.8 ± 11%
CCCS(=O)(=O)Nc1ccc(F)c(C(=O)c2c[nH]c3ncc(Cl)cc23)c1F,percent Bodipy-positive cells,[3],81.2 ± 1.2%
FC(F)(Cl)C(F)(F)Cl,percent Bodipy-positive cells,[3],23.2 ± 4.6%
COc1ccc(C2CC(c3c(O)cc(C)oc3=O)=NCCS2)c(OC)c1 (stereo unspecified),percent Bodipy-positive cells,[3],21.2 ± 1.9%
CCC(=O)c1c(O)cc(O)cc1O [Flopropione],percent Bodipy-positive cells,[2],8.07 ± 1.9%
same,percent Bodipy-positive cells,[3],25.3% and 16.9%
C=CC(=O)Nc1ccc2ncnc(Nc3cccc(Br)c3)c2c1,percent Bodipy-positive cells,[2],16.8 ± 4.6%
same,percent Bodipy-positive cells,[3],93.7 ± 1.5%
